# The supplement of paper PMC12067093, “Discovery and optimisation of a covalent ligand for TRIM25 and its application to targeted protein ubiquitination” (Chemical Science, 2025)
# Amino acid sequences for entries named in this document (tags omitted). A change or cut given only in a name is not applied to a line headed by its entry.
# UniProt O43772: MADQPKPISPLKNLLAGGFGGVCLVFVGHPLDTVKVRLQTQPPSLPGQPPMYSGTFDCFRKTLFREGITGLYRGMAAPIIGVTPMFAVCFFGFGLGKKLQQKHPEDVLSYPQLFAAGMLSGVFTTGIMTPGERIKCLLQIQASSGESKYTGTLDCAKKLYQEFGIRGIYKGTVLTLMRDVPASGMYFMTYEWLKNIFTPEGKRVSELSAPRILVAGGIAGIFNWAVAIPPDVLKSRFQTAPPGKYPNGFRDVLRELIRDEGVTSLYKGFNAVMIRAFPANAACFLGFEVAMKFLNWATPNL
# UniProt Q9Y6P5: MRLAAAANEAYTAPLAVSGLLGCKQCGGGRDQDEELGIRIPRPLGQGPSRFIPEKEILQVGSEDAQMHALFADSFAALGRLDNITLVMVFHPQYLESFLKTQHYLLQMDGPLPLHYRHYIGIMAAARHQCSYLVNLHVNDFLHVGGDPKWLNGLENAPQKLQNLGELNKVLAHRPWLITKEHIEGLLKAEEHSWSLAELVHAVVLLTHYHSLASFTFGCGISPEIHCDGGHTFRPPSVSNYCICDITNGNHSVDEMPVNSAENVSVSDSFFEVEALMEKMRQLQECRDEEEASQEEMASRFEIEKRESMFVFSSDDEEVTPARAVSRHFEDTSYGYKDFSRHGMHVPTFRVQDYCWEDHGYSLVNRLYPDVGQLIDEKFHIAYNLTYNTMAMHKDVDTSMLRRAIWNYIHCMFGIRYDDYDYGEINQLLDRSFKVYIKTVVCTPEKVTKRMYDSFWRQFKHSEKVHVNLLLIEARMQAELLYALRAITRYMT
# UniProt Q9BRV8: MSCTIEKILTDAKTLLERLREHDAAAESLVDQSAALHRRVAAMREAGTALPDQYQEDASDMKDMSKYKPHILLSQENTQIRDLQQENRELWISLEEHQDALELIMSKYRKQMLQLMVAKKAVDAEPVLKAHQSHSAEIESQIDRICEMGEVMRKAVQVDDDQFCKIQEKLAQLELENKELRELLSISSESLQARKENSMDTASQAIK
# UniProt Q96BR1: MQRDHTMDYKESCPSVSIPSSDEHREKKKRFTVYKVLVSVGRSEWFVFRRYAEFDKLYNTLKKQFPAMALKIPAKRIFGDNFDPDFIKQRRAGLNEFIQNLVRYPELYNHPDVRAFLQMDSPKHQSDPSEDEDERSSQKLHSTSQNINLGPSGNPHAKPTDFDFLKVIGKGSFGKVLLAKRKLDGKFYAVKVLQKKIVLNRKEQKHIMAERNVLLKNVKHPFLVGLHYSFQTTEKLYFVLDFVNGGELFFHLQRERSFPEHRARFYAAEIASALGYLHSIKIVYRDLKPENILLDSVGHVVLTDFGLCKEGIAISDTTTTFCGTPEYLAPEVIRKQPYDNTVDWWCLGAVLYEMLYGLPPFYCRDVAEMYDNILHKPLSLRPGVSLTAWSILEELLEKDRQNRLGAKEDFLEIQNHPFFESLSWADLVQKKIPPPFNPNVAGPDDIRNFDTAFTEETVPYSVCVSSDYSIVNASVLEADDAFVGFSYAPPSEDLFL
# UniProt Q15637: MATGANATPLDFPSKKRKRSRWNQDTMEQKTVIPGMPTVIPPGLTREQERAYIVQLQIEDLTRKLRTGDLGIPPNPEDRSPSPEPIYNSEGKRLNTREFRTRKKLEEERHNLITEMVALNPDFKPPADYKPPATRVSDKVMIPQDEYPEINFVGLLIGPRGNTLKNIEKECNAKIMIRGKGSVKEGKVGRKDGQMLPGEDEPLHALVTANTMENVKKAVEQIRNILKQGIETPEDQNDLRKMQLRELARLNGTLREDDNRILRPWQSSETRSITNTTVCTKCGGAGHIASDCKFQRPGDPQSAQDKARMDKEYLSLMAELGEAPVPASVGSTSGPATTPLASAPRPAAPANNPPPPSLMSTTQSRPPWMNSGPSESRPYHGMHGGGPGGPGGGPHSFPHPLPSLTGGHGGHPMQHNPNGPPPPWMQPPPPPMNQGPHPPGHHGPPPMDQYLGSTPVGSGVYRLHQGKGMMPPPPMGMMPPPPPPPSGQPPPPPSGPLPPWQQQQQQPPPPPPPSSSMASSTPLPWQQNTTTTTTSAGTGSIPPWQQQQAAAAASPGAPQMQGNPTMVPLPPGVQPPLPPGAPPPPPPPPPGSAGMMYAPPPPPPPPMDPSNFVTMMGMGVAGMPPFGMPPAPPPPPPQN
# UniProt Q9UHJ3: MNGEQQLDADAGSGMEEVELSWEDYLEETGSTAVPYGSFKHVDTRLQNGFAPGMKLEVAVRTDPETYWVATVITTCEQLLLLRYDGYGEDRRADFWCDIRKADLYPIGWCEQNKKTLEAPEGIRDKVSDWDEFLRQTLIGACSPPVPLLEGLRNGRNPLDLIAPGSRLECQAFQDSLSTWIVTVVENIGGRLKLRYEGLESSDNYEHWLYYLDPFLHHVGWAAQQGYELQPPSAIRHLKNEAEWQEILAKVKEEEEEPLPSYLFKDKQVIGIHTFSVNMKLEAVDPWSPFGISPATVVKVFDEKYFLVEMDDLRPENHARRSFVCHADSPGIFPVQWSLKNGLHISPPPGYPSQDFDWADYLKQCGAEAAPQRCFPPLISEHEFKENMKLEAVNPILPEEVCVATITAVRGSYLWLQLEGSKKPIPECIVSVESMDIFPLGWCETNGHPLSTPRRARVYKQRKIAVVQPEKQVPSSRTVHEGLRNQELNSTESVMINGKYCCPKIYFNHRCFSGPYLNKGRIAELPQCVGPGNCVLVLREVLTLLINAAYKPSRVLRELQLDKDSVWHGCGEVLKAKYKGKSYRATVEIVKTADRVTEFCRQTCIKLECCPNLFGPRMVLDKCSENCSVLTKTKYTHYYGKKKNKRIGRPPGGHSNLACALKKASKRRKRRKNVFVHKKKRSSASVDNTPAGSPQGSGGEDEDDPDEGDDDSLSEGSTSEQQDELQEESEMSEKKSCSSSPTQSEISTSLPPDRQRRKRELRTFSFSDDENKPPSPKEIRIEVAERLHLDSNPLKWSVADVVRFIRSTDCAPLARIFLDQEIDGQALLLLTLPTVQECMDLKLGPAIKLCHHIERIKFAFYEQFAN
# UniProt Q15019: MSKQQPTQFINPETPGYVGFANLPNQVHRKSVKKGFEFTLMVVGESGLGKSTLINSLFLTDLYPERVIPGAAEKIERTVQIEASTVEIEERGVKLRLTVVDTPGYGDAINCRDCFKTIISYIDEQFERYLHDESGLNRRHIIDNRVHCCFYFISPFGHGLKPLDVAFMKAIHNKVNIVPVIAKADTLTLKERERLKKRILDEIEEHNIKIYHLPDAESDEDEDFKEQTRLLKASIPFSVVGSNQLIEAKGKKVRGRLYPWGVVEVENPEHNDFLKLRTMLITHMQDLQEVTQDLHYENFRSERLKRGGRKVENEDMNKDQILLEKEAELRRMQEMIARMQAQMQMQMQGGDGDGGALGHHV
# UniProt Q8TBC3: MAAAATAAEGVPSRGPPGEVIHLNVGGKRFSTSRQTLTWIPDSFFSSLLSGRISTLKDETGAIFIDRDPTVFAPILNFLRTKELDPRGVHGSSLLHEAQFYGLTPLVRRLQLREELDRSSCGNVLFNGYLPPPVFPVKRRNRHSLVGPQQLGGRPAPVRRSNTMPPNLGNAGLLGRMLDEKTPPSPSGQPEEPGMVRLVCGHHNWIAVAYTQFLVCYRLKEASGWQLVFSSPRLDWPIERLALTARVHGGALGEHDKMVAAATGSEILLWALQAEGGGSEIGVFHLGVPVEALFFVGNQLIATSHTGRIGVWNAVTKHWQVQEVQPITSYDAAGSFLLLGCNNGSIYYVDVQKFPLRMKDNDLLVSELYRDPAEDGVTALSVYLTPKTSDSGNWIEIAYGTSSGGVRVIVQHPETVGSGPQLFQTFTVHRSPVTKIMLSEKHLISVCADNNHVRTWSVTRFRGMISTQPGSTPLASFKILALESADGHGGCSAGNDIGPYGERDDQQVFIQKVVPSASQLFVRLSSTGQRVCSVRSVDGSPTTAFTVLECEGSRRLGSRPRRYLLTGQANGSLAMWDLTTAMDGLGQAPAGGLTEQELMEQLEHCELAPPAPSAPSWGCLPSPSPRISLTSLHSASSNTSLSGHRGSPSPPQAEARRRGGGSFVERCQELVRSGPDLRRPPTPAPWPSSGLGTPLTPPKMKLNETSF
# UniProt Q9NP50: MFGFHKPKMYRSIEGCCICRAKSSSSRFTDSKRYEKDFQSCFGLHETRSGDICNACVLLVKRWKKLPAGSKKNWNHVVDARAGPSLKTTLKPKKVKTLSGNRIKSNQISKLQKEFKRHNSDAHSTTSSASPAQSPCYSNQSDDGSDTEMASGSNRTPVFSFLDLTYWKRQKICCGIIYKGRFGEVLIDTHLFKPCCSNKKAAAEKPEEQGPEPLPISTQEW
# UniProt P05141: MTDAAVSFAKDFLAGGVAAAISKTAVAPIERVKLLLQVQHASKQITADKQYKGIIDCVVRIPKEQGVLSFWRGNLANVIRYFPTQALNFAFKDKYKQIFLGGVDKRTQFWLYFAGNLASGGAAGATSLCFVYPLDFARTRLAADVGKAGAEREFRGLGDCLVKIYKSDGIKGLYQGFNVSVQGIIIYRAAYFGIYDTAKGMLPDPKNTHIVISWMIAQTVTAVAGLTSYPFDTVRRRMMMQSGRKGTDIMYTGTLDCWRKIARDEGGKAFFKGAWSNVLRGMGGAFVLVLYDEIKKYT
# UniProt Q9Y2K2: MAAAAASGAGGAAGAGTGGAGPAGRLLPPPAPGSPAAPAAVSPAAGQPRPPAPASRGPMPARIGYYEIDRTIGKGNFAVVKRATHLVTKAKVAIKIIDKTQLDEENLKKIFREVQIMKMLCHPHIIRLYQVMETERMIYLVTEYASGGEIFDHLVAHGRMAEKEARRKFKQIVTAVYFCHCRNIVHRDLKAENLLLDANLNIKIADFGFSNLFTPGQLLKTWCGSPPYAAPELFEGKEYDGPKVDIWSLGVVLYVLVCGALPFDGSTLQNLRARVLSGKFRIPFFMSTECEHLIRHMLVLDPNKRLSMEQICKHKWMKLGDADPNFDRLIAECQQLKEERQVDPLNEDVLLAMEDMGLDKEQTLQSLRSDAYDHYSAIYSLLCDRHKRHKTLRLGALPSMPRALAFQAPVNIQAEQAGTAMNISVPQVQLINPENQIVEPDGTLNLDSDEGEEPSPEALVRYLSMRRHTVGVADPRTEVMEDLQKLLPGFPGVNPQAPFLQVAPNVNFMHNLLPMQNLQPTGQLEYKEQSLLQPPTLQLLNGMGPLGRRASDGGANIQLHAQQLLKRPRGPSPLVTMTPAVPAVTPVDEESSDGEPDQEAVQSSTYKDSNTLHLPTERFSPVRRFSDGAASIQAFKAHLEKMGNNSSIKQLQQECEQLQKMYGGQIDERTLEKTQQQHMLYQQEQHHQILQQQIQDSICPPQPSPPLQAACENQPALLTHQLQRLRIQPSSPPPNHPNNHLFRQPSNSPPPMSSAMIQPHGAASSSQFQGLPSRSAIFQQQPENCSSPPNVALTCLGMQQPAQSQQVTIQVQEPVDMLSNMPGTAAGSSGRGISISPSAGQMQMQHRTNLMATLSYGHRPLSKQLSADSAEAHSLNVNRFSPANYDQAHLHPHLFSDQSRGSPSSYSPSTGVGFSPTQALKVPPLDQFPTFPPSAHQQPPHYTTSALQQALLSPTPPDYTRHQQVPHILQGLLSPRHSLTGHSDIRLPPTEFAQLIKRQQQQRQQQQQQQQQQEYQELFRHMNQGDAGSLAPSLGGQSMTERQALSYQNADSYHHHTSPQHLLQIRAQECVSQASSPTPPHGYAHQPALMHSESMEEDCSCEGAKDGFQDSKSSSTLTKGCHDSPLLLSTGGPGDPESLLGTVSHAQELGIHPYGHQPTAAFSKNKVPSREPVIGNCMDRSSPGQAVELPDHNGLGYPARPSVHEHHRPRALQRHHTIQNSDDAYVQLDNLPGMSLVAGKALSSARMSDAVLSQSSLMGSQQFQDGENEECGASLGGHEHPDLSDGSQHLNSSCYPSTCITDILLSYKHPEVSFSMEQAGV
# UniProt O43765: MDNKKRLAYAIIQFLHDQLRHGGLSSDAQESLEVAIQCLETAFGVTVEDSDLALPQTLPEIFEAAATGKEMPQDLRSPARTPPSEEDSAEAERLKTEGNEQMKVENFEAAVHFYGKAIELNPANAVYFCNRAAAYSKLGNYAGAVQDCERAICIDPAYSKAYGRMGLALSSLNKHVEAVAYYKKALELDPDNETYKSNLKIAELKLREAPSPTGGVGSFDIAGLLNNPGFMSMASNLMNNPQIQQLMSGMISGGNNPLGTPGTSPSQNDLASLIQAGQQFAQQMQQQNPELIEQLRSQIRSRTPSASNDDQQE
# UniProt Q00325: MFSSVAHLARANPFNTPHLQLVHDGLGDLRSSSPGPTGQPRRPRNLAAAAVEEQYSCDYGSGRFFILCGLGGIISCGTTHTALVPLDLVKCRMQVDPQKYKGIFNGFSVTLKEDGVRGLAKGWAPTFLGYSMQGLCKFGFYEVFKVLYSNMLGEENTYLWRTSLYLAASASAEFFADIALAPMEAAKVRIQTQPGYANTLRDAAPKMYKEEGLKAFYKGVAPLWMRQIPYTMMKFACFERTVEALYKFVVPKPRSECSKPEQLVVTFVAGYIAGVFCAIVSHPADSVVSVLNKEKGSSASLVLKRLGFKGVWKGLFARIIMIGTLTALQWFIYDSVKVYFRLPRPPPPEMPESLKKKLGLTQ
# Some of the results follow.
# Compound: CC1Cc2ccccc2N1C(=O)C1CCCN(C1)C(=O)CCl (mixture of isomers) [TRIM25 ligand 11 (diastereomer mixture)]
# Experiment: probe-labelled cysteine peptide fold change vs DMSO (competition) (log2 fold change); higher = less target engagement (more negative = stronger competition)
# Settings: 10 µM; THP-1; incubation time: 4 h
# 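Also: competitive chemoproteomic profiling in live THP-1 cells with an iodoacetamide desthiobiotin (IA-DTB) probe, comparing probe-labelled peptide intensities in compound-treated cells against DMSO-treated controls.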
row,Target,probe-labelled cysteine peptide fold change
1,SETD2_Q9BYW2_1125_ACPQTDK (UniProt Q9BYW2),-0.00464
2,SLC25A20_O43772_283_AFPANAACFLGFEVAMK (UniProt O43772),-0.155
3,SLC25A16_P16260_246_THVNLLCGGVAGAIAQTISYPFDVTR (UniProt P16260),0.365
4,SESN1_Q9Y6P5_286_QLQECRDEEEASQEEMASR (UniProt Q9Y6P5),-0.00479
5,SF3B1_O75533_965_TCQEEK (UniProt O75533),0.128
6,SIKE1_Q9BRV8_164_AVQVDDDQFCK (UniProt Q9BRV8),0.0279
7,SGK3_Q96BR1_308_DLKPENILLDSVGHVVLTDFGLCK (UniProt Q96BR1),0.137
8,SLC25A13_Q9UJS0_503_DIPFSAIYFPCYAHVK (UniProt Q9UJS0),0.0169
9,SKIV2L_Q15477_877_VFTTLVLCDKPLSQDPQDR (UniProt Q15477),0.105
10,SHMT1_P34896_248_IADENGAYLMADMAHISGLVAAGVVPSPFEHCHVVTTTTHK (UniProt P34896),-0.159
11,SF3B1_O75533_1250_MLQYCLQGLFHPAR (UniProt O75533),-0.129
12,SF1_Q15637_292_CGGAGHIASDCK (UniProt Q15637),0.0115
13,SIRT1_Q96EB6_371_IIQCHGSFATASCLICK (UniProt Q96EB6),0.0628
14,SLC25A1_P53007_262_NTWDCGLQILKK (UniProt P53007),-0.253
15,SETDB1_Q15047_385_RCEWIYR (UniProt Q15047),0.156
16,SF3B3_Q15393_1054_FGNICVVR (UniProt Q15393),0.145
17,SETD2_Q9BYW2_1516_AQGEIACGEDCLNR (UniProt Q9BYW2),0.0992
18,SFMBT1_Q9UHJ3_365_QCGAEAAPQR (UniProt Q9UHJ3),0.0543
19,SEPT2_Q15019_111_LTVVDTPGYGDAINCR (UniProt Q15019),0.232

row,Target,probe-labelled cysteine peptide fold change
1,SGK3_Q96BR1_13_ESCPSVSIPSSDEHREK (UniProt Q96BR1),-0.11
2,SHCBP1_Q8NEM2_426_GDTFVDCTGADIK (UniProt Q8NEM2),0.0136
3,SEPT7_Q16181_160_VQCCLYFIAPSGHGLKPLDIEFMK (UniProt Q16181),0.0163
4,SETD1B_Q9UPS6_1908+1912_FINHSCNPNCYAK (UniProt Q9UPS6),0.066
5,SIRT1_Q96EB6_326_EIYPGQFQPSLCHK (UniProt Q96EB6),-0.0648
6,SEPT11_Q9NVA2_41+46_STSQGFCFNILCVGETGIGK (UniProt Q9NVA2),-0.0574
7,SHKBP1_Q8TBC3_550_SVDGSPTTAFTVLECEGSR (UniProt Q8TBC3),0.0694
8,SKIV2L_Q15477_1014_KLEELIQGAQCVHSPR (UniProt Q15477),0.014
9,SKIV2L_Q15477_579_GRCDEQASGLTSLDLTTSSEK (UniProt Q15477),0.03
10,SINHCAF_Q9NP50_41_DFQSCFGLHETR (UniProt Q9NP50),0.000469
11,SF3B1_O75533_796_QCCGTDGVEANYIK (UniProt O75533),0.0337
12,SLC25A5_P05141_257_GTDIMYTGTLDCWR (UniProt P05141),0.0551
13,SIK3_Q9Y2K2_290_IPFFMSTECEHLIR (UniProt Q9Y2K2),-0.0975
14,SETX_Q7Z333_2630_CDDPEEELCHR (UniProt Q7Z333),0.0321
15,SGTA_O43765_153_AICIDPAYSK (UniProt O43765),0.0521
16,SHC1_P29353-6_416_QMPPPPPCPAGR (UniProt P29353),-0.0913
17,SLC25A3_Q00325-2_75_YYALCGFGGVLSCGLTHTAVVPLDLVK (UniProt Q00325),-0.0599
18,SKIV2L_Q15477_877_VFTTLVLCDK (UniProt Q15477),0.107

# Same assay, conditions: 50 µM; THP-1; incubation time: 4 h
row,Target,probe-labelled cysteine peptide fold change
1,SETD2_Q9BYW2_1125_ACPQTDK (UniProt Q9BYW2),-0.00536
2,SLC25A20_O43772_283_AFPANAACFLGFEVAMK (UniProt O43772),-0.204
3,SLC25A16_P16260_246_THVNLLCGGVAGAIAQTISYPFDVTR (UniProt P16260),0.384
4,SESN1_Q9Y6P5_286_QLQECRDEEEASQEEMASR (UniProt Q9Y6P5),-0.0495
5,SF3B1_O75533_965_TCQEEK (UniProt O75533),0.134
6,SIKE1_Q9BRV8_164_AVQVDDDQFCK (UniProt Q9BRV8),0.0525
7,SGK3_Q96BR1_308_DLKPENILLDSVGHVVLTDFGLCK (UniProt Q96BR1),-0.0915
8,SLC25A13_Q9UJS0_503_DIPFSAIYFPCYAHVK (UniProt Q9UJS0),0.0755
9,SKIV2L_Q15477_877_VFTTLVLCDKPLSQDPQDR (UniProt Q15477),0.0401
10,SHMT1_P34896_248_IADENGAYLMADMAHISGLVAAGVVPSPFEHCHVVTTTTHK (UniProt P34896),-0.203
11,SF3B1_O75533_1250_MLQYCLQGLFHPAR (UniProt O75533),0.0917
12,SF1_Q15637_292_CGGAGHIASDCK (UniProt Q15637),0.0404
13,SIRT1_Q96EB6_371_IIQCHGSFATASCLICK (UniProt Q96EB6),-0.152
14,SLC25A1_P53007_262_NTWDCGLQILKK (UniProt P53007),-0.113
15,SETDB1_Q15047_385_RCEWIYR (UniProt Q15047),0.176
16,SF3B3_Q15393_1054_FGNICVVR (UniProt Q15393),0.173
17,SETD2_Q9BYW2_1516_AQGEIACGEDCLNR (UniProt Q9BYW2),-0.0102
18,SFMBT1_Q9UHJ3_365_QCGAEAAPQR (UniProt Q9UHJ3),-0.153
19,SEPT2_Q15019_111_LTVVDTPGYGDAINCR (UniProt Q15019),0.115

row,Target,probe-labelled cysteine peptide fold change
1,SGK3_Q96BR1_13_ESCPSVSIPSSDEHREK (UniProt Q96BR1),-0.175
2,SHCBP1_Q8NEM2_426_GDTFVDCTGADIK (UniProt Q8NEM2),0.0133
3,SEPT7_Q16181_160_VQCCLYFIAPSGHGLKPLDIEFMK (UniProt Q16181),-0.26
4,SETD1B_Q9UPS6_1908+1912_FINHSCNPNCYAK (UniProt Q9UPS6),0.17
5,SIRT1_Q96EB6_326_EIYPGQFQPSLCHK (UniProt Q96EB6),-0.132
6,SEPT11_Q9NVA2_41+46_STSQGFCFNILCVGETGIGK (UniProt Q9NVA2),-0.0148
7,SHKBP1_Q8TBC3_550_SVDGSPTTAFTVLECEGSR (UniProt Q8TBC3),0.0857
8,SKIV2L_Q15477_1014_KLEELIQGAQCVHSPR (UniProt Q15477),-0.00798
9,SKIV2L_Q15477_579_GRCDEQASGLTSLDLTTSSEK (UniProt Q15477),-0.0554
10,SINHCAF_Q9NP50_41_DFQSCFGLHETR (UniProt Q9NP50),-0.0831
11,SF3B1_O75533_796_QCCGTDGVEANYIK (UniProt O75533),0.044
12,SLC25A5_P05141_257_GTDIMYTGTLDCWR (UniProt P05141),-0.0251
13,SIK3_Q9Y2K2_290_IPFFMSTECEHLIR (UniProt Q9Y2K2),-0.0384
14,SETX_Q7Z333_2630_CDDPEEELCHR (UniProt Q7Z333),-0.198
15,SGTA_O43765_153_AICIDPAYSK (UniProt O43765),0.0381
16,SHC1_P29353-6_416_QMPPPPPCPAGR (UniProt P29353),-0.421
17,SLC25A3_Q00325-2_75_YYALCGFGGVLSCGLTHTAVVPLDLVK (UniProt Q00325),-0.0437
18,SKIV2L_Q15477_877_VFTTLVLCDK (UniProt Q15477),0.137
